Data reported in PubChem BioAssay AID504444 (National Center for Advancing Translational Sciences (NCATS), 2011).
Out of some 360,000 compounds screened, about 7,500 (2.1%) were called active. The inconclusive results got no clear call from the source; some entries with a clear call stand among them for comparison. Calls come from the whole dose curve; as a rule, active = well fitted inhibition curve with a large enough effect; inconclusive = small, poorly fitted or top-dose-only effect, or effect the other way; inactive = flat fitted curve, though single readings scatter. A potency beside an inconclusive call is a rough fit, not a confirmed value.

Assay: Nrf2 qHTS screen for inhibitors; note: nearly all actives have a fitted effect of over 60% in size
Conditions: A549 ARE-Fluc reporter, luciferase luminescence, 18-24 h; activity change, negative = inhibition: at 46 µM (top of the series)
Procedure, shortened: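 A549 ARE_Fluc cells, 5000/well, 5% FBS OPTI-MEM; compounds in dose-response, 18-24 h at 37 °C/5% CO2; CellTiter-Fluor viability read (Ex 405/Em 525), then BugLite luciferase luminescence = Nrf2 activity.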
% is set by controls: 0 for no effect and ±100 for the full control effect; potency is the fitted concentration of half-maximal effect.

| Compound | Potency | activity change, negative = inhibition |
| --- | --- | --- |
| COCCCNCCOCCOc1ccc(Cl)cc1C(C)(C)C | inactive | – |
| Cc1ccc2nc(NC(=O)CSCC(=O)Nc3cc(C)on3)sc2c1 | inconclusive: 4.61 µM [activator, partial curve] | – |
| Nc1ccc(N2CCCCC2)c2nonc12 | inconclusive: 3.26 µM [falling, full curve] | – |
| Cc1ccc(-n2c(CSc3nc(C)cc(C)n3)nnc2SCC(=O)N2CCCC2)cc1 | inconclusive: 29.1 µM [falling, partial curve, poor fit] | – |
| CC1(C)CC2(CCO1)OC(=O)CC2C(=O)Nc1cccc2ccccc12 (stereo not drawn) | inconclusive: 1.3 µM [activator, partial curve, poor fit] | – |
| CN(Cc1ccc(N(C)C)cc1)C(=O)c1cc2ccccc2o1 | inconclusive: 32.6 µM [falling, partial curve, poor fit] | – |
| CCCCNC1=CC(=O)C(=O)c2ccccc21 | inconclusive: 29.1 µM [falling, single point] | – |
| COc1ccc2cc3cc(C(=O)NCCCN4CCc5ccccc5C4)sc3nc2c1 | inconclusive: 23.1 µM [activator, single point] | – |
| COc1ccc(/C=N/NC(=O)c2cccc([N+](=O)[O-])c2)cc1OC(=O)c1ccc(C)cc1 | active: 20.6 µM | – |
| COc1cc(-c2cc(=O)c3c(C)cc(O)cc3o2)cc(OC)c1OC | inactive | – |
| CCSC1=C(C#N)C2(CCCCC2)C(C#N)C(=O)N1 (stereo not drawn) | inconclusive: 5.8 µM [falling, full curve, poor fit] | – |
| CCc1ccc(N2C(=O)CSC23C(=O)N(Cc2ccc(C)cc2)c2ccccc23)cc1 (stereo not drawn) | inactive | – |
| CCn1cc(C(=O)N2CCN(c3ccc(F)cc3)CC2)c(=O)c2cc(S(=O)(=O)N(C)C3CCCCC3)ccc21 | inconclusive: 11.6 µM [falling, partial curve] | – |
| O=C(c1ccc(Cn2c(=S)[nH]c3cc4c(cc3c2=O)OCO4)cc1)N1CCN(c2ccccc2)CC1 | inconclusive: 8.2 µM [falling, partial curve, poor fit] | – |
| CCOC(=O)C1=C(CN2CCCCC2)NC(=O)NC1c1cc(C)ccc1C (stereo not drawn) | inactive | – |
| c1ccc(-c2cncn2-c2ccccc2)cc1 | inconclusive: 18.4 µM [activator, partial curve, poor fit] | – |
| COC(=O)NCC(C)OC(=O)Nc1ccc(Cl)cc1 (stereo not drawn) | inconclusive: 23.1 µM [activator, single point] | – |
| O=C(/C=C/c1c(F)cccc1Cl)Nc1cccnc1 | inconclusive: 5.8 µM [activator, partial curve] | – |
| CCOC(=O)c1nn(-c2ccc(C)cc2)c(=O)c2c(N)scc12 | inconclusive: 13 µM [falling, partial curve, poor fit] | – |
| CCOC(=O)c1ccc(NS(=O)C23CC4CC(CC(C4)C2)C3)cc1 (stereo not drawn) | inactive | – |
| CCc1cccc(NC(=O)C2CCCN(S(=O)(=O)c3cccs3)C2)c1 (stereo not drawn) | inconclusive: 16.4 µM [falling, single point] | – |
| Cc1cc(=O)[nH]c2c(C)cc(S(=O)(=O)NCc3ccccc3)cc12 | inconclusive: 8.2 µM [falling, partial curve, poor fit] | – |
| O=C(c1nc2ccccn2c1CNCCn1ccc2ccccc21)N1CCOCC1 | inconclusive: 20.6 µM [falling, partial curve, poor fit] | – |

Molecules above with sulfur (eleven):

| Compound | Potency | activity change, negative = inhibition |
| --- | --- | --- |
| Cc1ccc2nc(NC(=O)CSCC(=O)Nc3cc(C)on3)sc2c1 | inconclusive: 4.61 µM [activator, partial curve] | – |
| Cc1ccc(-n2c(CSc3nc(C)cc(C)n3)nnc2SCC(=O)N2CCCC2)cc1 | inconclusive: 29.1 µM [falling, partial curve, poor fit] | – |
| COc1ccc2cc3cc(C(=O)NCCCN4CCc5ccccc5C4)sc3nc2c1 | inconclusive: 23.1 µM [activator, single point] | – |
| CCSC1=C(C#N)C2(CCCCC2)C(C#N)C(=O)N1 (stereo not drawn) | inconclusive: 5.8 µM [falling, full curve, poor fit] | – |
| CCc1ccc(N2C(=O)CSC23C(=O)N(Cc2ccc(C)cc2)c2ccccc23)cc1 (stereo not drawn) | inactive | – |
| CCn1cc(C(=O)N2CCN(c3ccc(F)cc3)CC2)c(=O)c2cc(S(=O)(=O)N(C)C3CCCCC3)ccc21 | inconclusive: 11.6 µM [falling, partial curve] | – |
| O=C(c1ccc(Cn2c(=S)[nH]c3cc4c(cc3c2=O)OCO4)cc1)N1CCN(c2ccccc2)CC1 | inconclusive: 8.2 µM [falling, partial curve, poor fit] | – |
| CCOC(=O)c1nn(-c2ccc(C)cc2)c(=O)c2c(N)scc12 | inconclusive: 13 µM [falling, partial curve, poor fit] | – |
| CCOC(=O)c1ccc(NS(=O)C23CC4CC(CC(C4)C2)C3)cc1 (stereo not drawn) | inactive | – |
| CCc1cccc(NC(=O)C2CCCN(S(=O)(=O)c3cccs3)C2)c1 (stereo not drawn) | inconclusive: 16.4 µM [falling, single point] | – |
| Cc1cc(=O)[nH]c2c(C)cc(S(=O)(=O)NCc3ccccc3)cc12 | inconclusive: 8.2 µM [falling, partial curve, poor fit] | – |

Next results:

| Compound | Potency | activity change, negative = inhibition |
| --- | --- | --- |
| Cn1cnc([N+](=O)[O-])c1Sc1nc(N)nc2c1ncn2C1OC(CO)C(O)C1O (stereo not drawn) | inconclusive: 5.8 µM [falling, partial curve, poor fit] | – |
| COc1ccc(C(=O)OC(C)C(=O)NC(C)CCc2ccccc2)cc1OC (stereo not drawn) | inconclusive: 0.146 µM [falling, full curve, poor fit] | – |
| CN=c1sc2c(n1C)C(=O)c1ccccc1C2=O | active: 20.6 µM | – |
| O=C(NCc1ccccc1CN1CCCC1)C1CCN(S(=O)(=O)c2ccc(Cl)cc2)CC1 | inactive | – |
| COc1ccc2c(c1)[C@H]1[C@H](CO2)[C@H](c2ccccc2)[C@]2(C)C(=O)Nc3cc(Cl)ccc3C(=O)N12 | inconclusive: 2.06 µM [activator, partial curve] | – |
| CCCOc1ccc(CSCCNC(=S)Nc2ccccc2)cc1 | inconclusive: 23.1 µM [falling, single point] | – |
| CC(=O)Nc1ccc(NS(=O)(=O)c2ccc3c(c2)NC(=O)CC(=O)N3)cc1 | inconclusive: 18.4 µM [activator, single point] | – |
| Cc1ccc2nc3sc(C(=O)NCc4ccco4)c(N)c3cc2c1 | inconclusive: 7.31 µM [activator, partial curve] | – |
| Nc1ccccc1NC1=CC(=O)CC(c2ccco2)C1 (stereo not drawn) | inconclusive: 10.3 µM [falling, partial curve, poor fit] | – |
| Cc1cc(-c2ccc(S(=O)(=O)N3CCN(c4cccc(C)c4C)CC3)s2)on1 | inconclusive: 29.1 µM [falling, single point] | – |
| Cc1cnc(NC(=O)c2ccc3ncsc3c2)s1 | inconclusive: 2.59 µM [activator, full curve] | – |
| COc1ccc(CCNC(=O)CCN2C(=O)C(C)Oc3ccc(C)cc32)cc1OC (stereo not drawn) | inactive | – |
| CC[C@]12c3[nH]c4ccc(Cl)cc4c3CCN1C(=O)[C@@H](CC(=O)NCCC1=CCCCC1)C[C@@H]2C(=O)N1CCN(C(=O)C2CC2)CC1 | inconclusive: 18.4 µM [falling, single point] | – |
| COC(=O)C1=CN(c2cc(C)cc(C)c2)C=C(C(=O)OC)C1c1cccc(F)c1 | inactive | – |
| CN(C(=O)c1sc2nc(N3CCOCC3)c3c(c2c1N)CCCC3)c1ccccc1 | active: 16.4 µM | – |
| COC(=O)c1ccc(-c2ccc(/C=N/N3C(=O)C4C5C=CC(CC5)C4C3=O)o2)cc1 (stereo not drawn) | inconclusive: 2.31 µM [activator, full curve] | – |
| O=C(NC(=S)Nc1ccc(Br)c(Cl)c1)C1CC1 | inactive | – |
| COc1ccc(C(CC(=O)N2CCCCC2)c2c(O)cc(OC)cc2OC)cc1 (stereo not drawn) | inconclusive: 29.1 µM [falling, single point] | – |
| COc1ccc(-n2ccnc(SCC(=O)NC3CCCCC3)c2=O)cc1 | inconclusive: 25.9 µM [falling, partial curve, poor fit] | – |
| COc1ccc(-n2c(=O)c3c4c(sc3n(Cc3ccccc3Cl)c2=O)CCC4)c(OC)c1 | – | inactive: -1.38% [at 9.27 µM] |
| OCCNc1nc2nonc2nc1NCCO | inactive | – |
| COc1ccc(-c2cn(Cc3ccc4ccccc4c3)nn2)cc1 | inactive | – |
| FC(F)(F)c1cc(-c2ccco2)nc(-n2nnc3ccccc32)n1 | inactive | – |

| Compound | Potency | activity change, negative = inhibition |
| --- | --- | --- |
| CC(=O)OC1CC2(C)C(C(C)=O)CCC2C2CCC3=CC(=O)CCC3(C)C12 (stereo not drawn) | inactive | – |
| O=C(CSc1ccc2c(c1)OCCO2)NC(=O)NC1CCCC1 | inconclusive: 10.3 µM [falling, partial curve, poor fit] | – |
| CCOC(=O)c1c(CSCc2ccccc2)oc2ccc(O)c(CN(C)C)c12 | inactive | – |
| O=C(Nc1nnc(C2CC2)s1)c1cncc(Br)c1 | inconclusive: 23.1 µM [activator, single point] | – |
| CC(=O)N1CCN(c2ccccc2NC(=O)COc2ccc(Br)cc2)CC1 | inconclusive: 0.366 µM [activator, partial curve, poor fit] | – |
| COc1cc(Cl)c(C)cc1NC(=O)c1cc2c(Cl)nc3ccc(C)cc3c2s1 | inactive | – |
| CCOCCCNC(=O)c1c[nH]c2ccc(S(=O)(=O)Nc3cccc(OC)c3)cc2c1=O | inconclusive: 20.6 µM [activator, partial curve, poor fit] | – |
| COC(=O)c1ccc(NC(=O)c2snnc2-c2ccccc2)cc1 | inconclusive: 18.4 µM [falling, partial curve, poor fit] | – |
| CC(C)(C)c1ccc(Cn2nnc3c(=O)[nH]c(C4CCCN(C(=O)c5cccs5)C4)nc32)cc1 (stereo not drawn) | active: 23.1 µM | – |
| Cc1[nH]nc2c1C(C(C)c1ccccc1)C(C#N)=C(N)O2 (stereo not drawn) | inconclusive: 5.17 µM [falling, partial curve, poor fit] | – |
| COc1cc2c(cc1OC)CN(C(=O)Nc1ccccc1Cl)CC2 | inconclusive: 16.4 µM [falling, partial curve] | – |
| COc1ccc2c3c(cccc13)C(=O)N(O)C2=O | inconclusive: 5.17 µM [falling, partial curve, poor fit] | – |
| Cc1ccc(NS(=O)(=O)c2ccc3c(c2)CC(C)N3C(=O)C2CCC2)cc1Cl (stereo not drawn) | active: 20.6 µM | – |
| N#CC1=C(N)Oc2cc(N)ccc2C1c1cccnc1 (stereo not drawn) | inactive | – |
| CCOCCCNC(=O)c1c[nH]c2cc(OC)ccc2c1=O | inconclusive: 7.31 µM [activator, partial curve, poor fit] | – |
| COc1cc(S(=O)(=O)N2CCOCC2)ccc1NC(=O)COC(=O)CC12CC3CC(CC(C3)C1)C2 | inconclusive: 20.6 µM [falling, single point] | – |
| COc1ccc(C(=O)O)cc1NC(=S)NC(=O)C(c1ccccc1)c1ccccc1 | inactive | – |
| CC(C)(Oc1ccc(Br)cc1)C(=O)N1CCc2ccccc21 | inconclusive: 2.59 µM [falling, partial curve, poor fit] | – |
| COc1ccc(OC)c(NC(=O)CSc2ccc(-c3ccco3)nn2)c1 | inconclusive: 14.6 µM [falling, partial curve, poor fit] | – |
| COc1ccc(O)c(/C=N/NC(=O)c2ccc(CSc3nc(C)cc(C)n3)cc2)c1 | active: 9.2 µM | – |
| COc1cccc(/C=N/Nc2nc3ccccc3n3cnnc23)c1 | inactive | – |
| COC(=O)c1cc(NC(=O)CC2SC(=Nc3ccccc3)N(CCc3c[nH]c4ccccc34)C2=O)cc(C(=O)OC)c1 (stereo not drawn) | inconclusive: 29.1 µM [falling, single point] | – |
